These are yes or no findings as the source states them, for the method shown. Binding seen in cells or lysates may run through a third protein. Some binding calls cover weakened binding; strength is not graded here.
B1: POU3F3 (BRN1), overexpressed from pCMV5 rBrn1 (protein, UniProt Q63262 1-497)
chain: MATAASNPYLPGNSLLAAGSIVHSDAAGAGGGGGGGGGGGGGAGGGGGGMQPGSAAVTSGAYRGDPSSVKMVQSDFMQGAMAASNGGHMLSHAHQWVTALPHAAAAAAAAAAAAVEASSPWSGSAVGMAGSPQQPPRPPPPPPQGPDVKGGVGREDLHAGTALHHRGPPHLGPPPPPPHQGHPGGWGAAAAAAAAAAAAAAAAHLPSMAGGQQPPPQSLLYSQPGGFTVNGMLSAPPGPGGGGGGAGGGAQSLVHPGLVRGDTPELAEHHHHHHHHAHPHPPHPHHAQGPPHHGGGGAGPGLNSHDPHSDEDTPTSDDLEQFAKQFKQRRIKLGFTQADVGLALGTLYGNVFSQTTICRFEALQLSFKNMCKLKPLLNKWLEEADSSTGSPTSIDKIAAQGRKRKKRTSIEVSVKGALESHFLKCPKPSAQEITNLADSLQLEKEVVRVWFCNRRQKEKRMTPPGIQQQTPDDVYSQVGTVSADTPPPHHGLQTSVQ

Amino acid sequences for entries named in this document (tags omitted).
UniProt Q60722: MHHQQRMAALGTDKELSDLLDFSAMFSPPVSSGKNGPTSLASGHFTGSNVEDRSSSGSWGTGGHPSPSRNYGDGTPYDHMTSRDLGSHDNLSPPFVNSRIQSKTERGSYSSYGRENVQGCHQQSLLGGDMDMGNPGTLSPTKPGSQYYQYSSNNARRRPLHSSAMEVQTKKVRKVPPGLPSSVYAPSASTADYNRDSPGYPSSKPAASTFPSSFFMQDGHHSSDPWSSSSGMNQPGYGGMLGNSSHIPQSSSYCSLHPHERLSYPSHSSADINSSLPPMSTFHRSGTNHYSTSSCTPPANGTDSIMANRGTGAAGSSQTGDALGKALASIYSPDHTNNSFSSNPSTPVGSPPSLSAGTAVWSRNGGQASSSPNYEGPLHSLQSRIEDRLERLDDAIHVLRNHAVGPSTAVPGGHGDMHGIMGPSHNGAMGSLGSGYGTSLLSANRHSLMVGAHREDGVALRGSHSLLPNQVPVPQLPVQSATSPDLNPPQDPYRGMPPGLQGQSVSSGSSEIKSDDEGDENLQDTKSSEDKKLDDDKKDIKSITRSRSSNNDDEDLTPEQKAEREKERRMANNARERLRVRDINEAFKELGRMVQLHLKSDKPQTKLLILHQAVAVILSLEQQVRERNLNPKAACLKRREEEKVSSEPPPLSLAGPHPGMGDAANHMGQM
UniProt P51532: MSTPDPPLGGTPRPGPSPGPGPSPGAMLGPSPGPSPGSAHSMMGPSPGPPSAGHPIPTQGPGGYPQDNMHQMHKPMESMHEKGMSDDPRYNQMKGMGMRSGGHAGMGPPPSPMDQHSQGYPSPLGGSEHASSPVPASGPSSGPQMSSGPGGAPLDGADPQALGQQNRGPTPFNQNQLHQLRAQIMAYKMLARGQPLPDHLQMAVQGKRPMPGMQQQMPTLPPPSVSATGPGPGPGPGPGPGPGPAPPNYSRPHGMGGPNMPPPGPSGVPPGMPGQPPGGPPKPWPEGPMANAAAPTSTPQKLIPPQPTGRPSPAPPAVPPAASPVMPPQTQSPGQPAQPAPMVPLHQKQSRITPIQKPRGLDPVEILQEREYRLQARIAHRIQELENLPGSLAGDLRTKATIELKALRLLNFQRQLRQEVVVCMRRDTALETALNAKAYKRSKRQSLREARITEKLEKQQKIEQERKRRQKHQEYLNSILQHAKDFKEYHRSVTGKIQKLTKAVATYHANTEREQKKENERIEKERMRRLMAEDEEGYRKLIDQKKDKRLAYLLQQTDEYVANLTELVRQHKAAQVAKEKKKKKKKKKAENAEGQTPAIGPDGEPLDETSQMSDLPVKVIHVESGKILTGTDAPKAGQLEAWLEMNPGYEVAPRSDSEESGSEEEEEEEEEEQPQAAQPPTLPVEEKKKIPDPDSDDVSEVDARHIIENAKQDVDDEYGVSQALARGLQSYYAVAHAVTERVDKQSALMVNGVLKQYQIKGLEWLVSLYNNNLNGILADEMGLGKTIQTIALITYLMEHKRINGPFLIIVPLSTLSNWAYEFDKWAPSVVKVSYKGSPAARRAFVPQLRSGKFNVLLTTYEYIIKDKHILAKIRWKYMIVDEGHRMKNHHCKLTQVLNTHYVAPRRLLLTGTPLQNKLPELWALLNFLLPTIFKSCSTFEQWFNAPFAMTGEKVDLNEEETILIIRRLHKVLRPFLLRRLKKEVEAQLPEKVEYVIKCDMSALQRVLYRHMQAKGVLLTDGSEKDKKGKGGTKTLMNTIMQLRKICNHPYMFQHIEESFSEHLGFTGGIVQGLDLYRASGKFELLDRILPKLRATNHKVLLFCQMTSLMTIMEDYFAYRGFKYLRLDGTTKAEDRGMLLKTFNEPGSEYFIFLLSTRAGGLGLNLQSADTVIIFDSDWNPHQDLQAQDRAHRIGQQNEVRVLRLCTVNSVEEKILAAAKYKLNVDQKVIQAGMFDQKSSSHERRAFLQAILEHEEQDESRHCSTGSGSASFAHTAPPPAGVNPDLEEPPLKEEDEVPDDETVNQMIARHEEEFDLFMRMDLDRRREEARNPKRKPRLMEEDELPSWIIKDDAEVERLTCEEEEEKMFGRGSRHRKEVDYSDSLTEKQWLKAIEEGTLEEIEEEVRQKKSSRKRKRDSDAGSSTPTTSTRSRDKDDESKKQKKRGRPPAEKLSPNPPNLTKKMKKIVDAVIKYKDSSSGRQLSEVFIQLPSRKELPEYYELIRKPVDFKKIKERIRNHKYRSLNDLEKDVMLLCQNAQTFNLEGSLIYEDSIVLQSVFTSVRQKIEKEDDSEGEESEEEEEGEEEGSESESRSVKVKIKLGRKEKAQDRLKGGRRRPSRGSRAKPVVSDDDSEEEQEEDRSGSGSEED
UniProt Q60987: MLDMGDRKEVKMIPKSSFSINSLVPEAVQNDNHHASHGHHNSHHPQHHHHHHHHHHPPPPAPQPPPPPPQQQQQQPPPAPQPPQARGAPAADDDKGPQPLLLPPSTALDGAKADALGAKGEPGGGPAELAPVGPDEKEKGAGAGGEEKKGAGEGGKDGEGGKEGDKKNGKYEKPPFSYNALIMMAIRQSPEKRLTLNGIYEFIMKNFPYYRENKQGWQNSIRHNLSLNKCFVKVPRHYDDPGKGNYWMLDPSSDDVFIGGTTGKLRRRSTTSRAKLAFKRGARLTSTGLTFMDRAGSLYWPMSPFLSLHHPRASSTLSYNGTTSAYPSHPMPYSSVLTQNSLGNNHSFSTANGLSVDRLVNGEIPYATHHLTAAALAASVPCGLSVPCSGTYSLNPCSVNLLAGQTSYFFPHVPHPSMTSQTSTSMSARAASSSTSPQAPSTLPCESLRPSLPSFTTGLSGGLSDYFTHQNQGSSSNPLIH
UniProt Q7M6Y2: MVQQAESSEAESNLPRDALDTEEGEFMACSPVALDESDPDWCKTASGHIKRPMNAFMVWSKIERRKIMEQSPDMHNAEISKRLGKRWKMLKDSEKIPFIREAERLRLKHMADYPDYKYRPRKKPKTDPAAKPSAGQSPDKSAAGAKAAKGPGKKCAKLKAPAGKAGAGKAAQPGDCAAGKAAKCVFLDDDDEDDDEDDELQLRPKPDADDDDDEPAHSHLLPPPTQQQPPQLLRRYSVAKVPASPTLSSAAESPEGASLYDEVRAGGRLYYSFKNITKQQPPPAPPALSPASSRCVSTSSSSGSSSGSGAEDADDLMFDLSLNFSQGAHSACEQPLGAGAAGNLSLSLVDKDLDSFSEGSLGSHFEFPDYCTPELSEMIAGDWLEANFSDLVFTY
UniProt P39880: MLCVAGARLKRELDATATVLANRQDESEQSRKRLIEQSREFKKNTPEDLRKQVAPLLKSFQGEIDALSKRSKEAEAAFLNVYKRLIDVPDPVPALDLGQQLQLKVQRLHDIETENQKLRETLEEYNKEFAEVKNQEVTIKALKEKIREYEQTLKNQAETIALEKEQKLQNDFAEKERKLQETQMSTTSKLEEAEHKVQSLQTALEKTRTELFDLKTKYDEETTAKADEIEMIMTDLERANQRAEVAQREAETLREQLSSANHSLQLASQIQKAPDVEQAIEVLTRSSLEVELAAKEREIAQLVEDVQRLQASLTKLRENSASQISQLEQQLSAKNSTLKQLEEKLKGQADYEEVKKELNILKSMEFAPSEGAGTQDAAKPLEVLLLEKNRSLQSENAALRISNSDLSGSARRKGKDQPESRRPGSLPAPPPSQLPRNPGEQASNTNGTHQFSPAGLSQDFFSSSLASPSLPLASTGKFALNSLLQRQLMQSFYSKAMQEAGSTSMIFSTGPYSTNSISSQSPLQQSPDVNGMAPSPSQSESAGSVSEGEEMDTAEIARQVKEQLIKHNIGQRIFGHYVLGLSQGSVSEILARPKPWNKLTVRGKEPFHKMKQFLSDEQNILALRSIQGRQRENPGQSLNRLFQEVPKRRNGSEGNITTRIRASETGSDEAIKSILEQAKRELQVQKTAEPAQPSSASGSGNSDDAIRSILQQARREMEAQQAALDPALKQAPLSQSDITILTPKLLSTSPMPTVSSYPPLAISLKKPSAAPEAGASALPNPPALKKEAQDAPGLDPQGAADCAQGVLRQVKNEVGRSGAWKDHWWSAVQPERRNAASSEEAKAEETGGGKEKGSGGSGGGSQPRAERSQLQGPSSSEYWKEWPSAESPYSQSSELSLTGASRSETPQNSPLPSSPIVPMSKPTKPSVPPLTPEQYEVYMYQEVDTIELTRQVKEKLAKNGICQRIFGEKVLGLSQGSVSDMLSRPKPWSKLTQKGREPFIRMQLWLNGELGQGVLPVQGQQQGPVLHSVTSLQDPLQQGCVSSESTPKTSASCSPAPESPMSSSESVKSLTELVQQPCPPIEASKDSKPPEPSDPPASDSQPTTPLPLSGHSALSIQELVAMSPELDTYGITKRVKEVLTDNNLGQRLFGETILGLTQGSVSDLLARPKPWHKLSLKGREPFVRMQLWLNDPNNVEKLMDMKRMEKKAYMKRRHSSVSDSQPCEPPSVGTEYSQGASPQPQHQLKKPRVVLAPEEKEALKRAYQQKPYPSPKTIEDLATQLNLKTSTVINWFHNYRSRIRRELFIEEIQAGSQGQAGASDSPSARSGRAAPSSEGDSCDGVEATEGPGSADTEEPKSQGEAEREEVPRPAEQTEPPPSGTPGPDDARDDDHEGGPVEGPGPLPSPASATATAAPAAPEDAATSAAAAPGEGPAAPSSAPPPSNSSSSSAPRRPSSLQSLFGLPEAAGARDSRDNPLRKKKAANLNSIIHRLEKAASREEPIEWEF

The molecules below were run against TCF-4 (transcription factor 4), long isoform, overexpressed from CAG-TCF-4-IRES-GFP (UniProt Q60722) (assay: co-IP).

| binding | Molecule |
| --- | --- |
| binds | SMARCA4 (BRG1), overexpressed from pBJ5-hBRG1 (from UniProt P51532 1-1647) |
| binds | FOXG1, overexpressed from CAG-Foxg1-IRES-RFP (from UniProt Q60987 1-481) |
| binds | SOX11, overexpressed from CAG-Sox11-IRES-GFP (from UniProt Q7M6Y2 1-395) |
| binds | CUX1 (p200 CUX1), Myc-tagged, overexpressed from pXJ42-p200 CUX1 (from UniProt P39880 1-1505) |
| binds | B1 |

Reference: paper doi:10.1101/2020.06.16.156083
